The text below walks through data of US20170129926A1 (ABCLON, published 2017).

The chains behind the UniProt entries cited, without tags or fusion partners. Residues count along the entry.
UniProt P05231, 30-212 limits assumed: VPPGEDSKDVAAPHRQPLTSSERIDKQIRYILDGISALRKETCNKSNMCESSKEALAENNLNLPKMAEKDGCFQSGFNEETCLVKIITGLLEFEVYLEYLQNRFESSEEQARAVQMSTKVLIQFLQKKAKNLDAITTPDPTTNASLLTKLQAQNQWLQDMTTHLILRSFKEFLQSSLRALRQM

Where a chain is given by its changes, count along the chain named. Read-outs that look alike come from different tables or passages of the source.

Assay [1] deals with T1, human IL-6 (human, UniProt P05231 30-212). Kind of assay: cell-based or functional assay.
Assay [2] concerns the target T1, human IL-6. Kind of assay: cell-based or functional assay. This is another data set of the same source.
In assay [3] the target is T1, human IL-6. Kind of assay: SPR (ProteOn), polypeptide immobilized, rhIL-6 analyte, mean of three. Here is the method: This experiment was repeated three times.
In separate triplicate experiments, TNF (R&D Systems) was injected using the same concentration series. In all cases, the duration of the injection was 3 min at a flow rate of 60 μl/min and the dissociation time was 30 min. Buffer response levels obtained for activated/deactivated spots or in between spots areas were subtracted according to the manufacturer's instructions. The data was analyzed using Bio-Rad Manager Software (BioRad).

Assay [4] deals with T1, human IL-6. The experiment in a line: competition ELISA: blocking of pre-mixed hIL-6/hIL-6Rα binding to coated hgp130-Fc. The method, then: In this experiment, half area 96-well ELISA plates were coated with Fc-fused hgp130 (hgp130-Fc) at a concentration of 4 μg/ml. Plates were incubated overnight at 4° C. and then washed twice in tap water. Next, the plates were blocked for 1 h in PBSC. Plates were incubated for 1.5 h at RT and then washed 4 times with 200 μl 0.05% Tween/PBS.
Plates were incubated for 1.5 h and then washed 4 times. A biotinylated anti-IL-6Rα antibody (R&D Systems) was added and the plates were incubated for another 1.5 h followed by washing. A 1:8000 dilution of streptavidin-HRP (Thermo Scientific) was added and the plates were incubated for 1 h.

Assay [5] has as its target T1, human IL-6. The experiment in a line: SPR (ProteOn), Z variant immobilized, hIL-6 analyte, 1:1 model. Here is the method:
The immobilization was performed using amine coupling chemistry according to the manufacturer's recommendations and PBST 0.05% was used as running buffer. PBST 0.05% was also used as running buffer in the kinetic experiment using a flow rate was 60 μl/min. […] After dissociation, the surfaces were regenerated with HCl supplemented with 0.05% Tween 20. Kinetic constants were calculated from the sensorgrams using a 1:1 model in Bio-Rad manager Software (Bio-Rad).

Assay [6] concerns the target T1, human IL-6. Kind of assay: cell-based or functional assay. The source holds these as a separate data set.
Another assay deals with T2, murine IL-6 (murine, UniProt P08505 25-211).
T2 construct: biotinylated; also called mIL-6
T2 sequence: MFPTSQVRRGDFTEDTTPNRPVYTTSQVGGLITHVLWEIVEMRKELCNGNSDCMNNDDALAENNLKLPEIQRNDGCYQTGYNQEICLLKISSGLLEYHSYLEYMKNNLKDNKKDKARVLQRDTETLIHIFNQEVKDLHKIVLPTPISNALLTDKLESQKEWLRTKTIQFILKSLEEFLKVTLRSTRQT
The experiment in a line: ELISA, captured Z-ABD, biotin-mIL-6 titrated. A general note: An ELISA detects its analyte on a solid surface through an enzyme-linked reagent.

B1: His6-Z06814 (designed binder)
chain: MGSSHHHHHHLQVDAKYAKEEQRAWREIHLLPNLTIEQMAAFIWKLLDDPSQSSELLSEAKKLNDSQAPKVD
The Kd is the equilibrium constant for the complex coming apart. Lower therefore signals tighter binding. By koff is commonly meant the rate constant with which the complex falls apart. By kon is commonly meant the second-order rate constant of association. The low end stands for slow association, the high end for fast association. What is called IC50 is the point on the concentration scale where inhibition reaches its midpoint. Low readings indicate higher potency, high ones lower potency. In the case of B1, the “IC50, IL-6 dependent growth of TF-1 cells” value (“IC50, IL-6 dependent growth” for short) in the assay with human IL-6 [1] amounted to 1.6 nM. Moreover, the “IC50, IL-6 dependent growth” value with human IL-6 [2] stood at 0.13 nM. In the assay with human IL-6 [3], the affinity, expressed as Kd, was 0.5 nM; the koff was 0.00015 s⁻¹; the on-rate (kon) was 310000 M⁻¹ s⁻¹. In addition, the IC50 with human IL-6 [4] is 1.6 nM. In the assay with human IL-6 [5], the Kd was determined as 0.2 nM, the koff came to 8.8e-05 s⁻¹ and the kon turned out to be 430000 M⁻¹ s⁻¹.

B2: Z06814-ABD (designed binder)
chain: MGSSLQVDAKYAKEEQRAWREIHLLPNLTIEQMAAFIWKLLDDPSQSSELLSEAKKLNDSQAPKVDGSLAEAKEAANAELDSYGVSDFYKRLIDKAKTVEGVEALKDAILAALP
Consider B2, for which the “IC50, IL-6 dependent growth” value with human IL-6 [1] was found to be 0.8 nM. In the assay with human IL-6 [6], the “IC50, IL-6 trans-signaling (MCP-1 secretion by HUVECs)” value is about 1 nM.

B3: Z11612 (designed binder)
chain: AQHDEALEVDAKYAKEEQVAWWEISHLPNLTITQVVAFIQKLFDDPSQSSELLSEAKKLNDSQAPKVDYVLAEAKVLANRELDKYGVSDYYKNLINNAKTVEGVKALIDEILAALPYVPG
notes: domain: GA3; periplasmic ABD fusion
A word on the EC50: it is the midpoint of the concentration-response curve. B3 gave an EC50 with murine IL-6 of 9.3 nM.

B4: Z11616 (designed binder)
chain: B3 chain with T33E
notes: as for B3
As to B4, a half-maximal response with murine IL-6 (EC50) required 7.7 nM. The EC50 values of the last two molecules are within 1.5-fold of each other.
